For assay [1], the target named is T1, Mus musculus Elp3 (Mus musculus) (UniProt Q9CZX0).
T1 sequence: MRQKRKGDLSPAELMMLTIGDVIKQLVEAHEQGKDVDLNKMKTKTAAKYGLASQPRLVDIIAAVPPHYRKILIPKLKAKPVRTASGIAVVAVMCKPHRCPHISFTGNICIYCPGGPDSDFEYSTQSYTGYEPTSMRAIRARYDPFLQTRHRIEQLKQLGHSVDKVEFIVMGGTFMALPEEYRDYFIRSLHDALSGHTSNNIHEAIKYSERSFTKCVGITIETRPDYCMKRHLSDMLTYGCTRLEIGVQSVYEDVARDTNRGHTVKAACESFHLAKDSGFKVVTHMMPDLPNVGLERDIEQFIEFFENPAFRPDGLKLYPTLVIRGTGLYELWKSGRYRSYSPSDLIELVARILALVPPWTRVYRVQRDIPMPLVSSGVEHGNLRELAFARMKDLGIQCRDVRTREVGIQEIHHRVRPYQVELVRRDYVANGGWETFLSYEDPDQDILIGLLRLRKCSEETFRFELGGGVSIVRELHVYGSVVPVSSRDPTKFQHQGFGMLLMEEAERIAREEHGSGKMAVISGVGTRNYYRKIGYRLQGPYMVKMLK
The assay can be described thus: co-purification (affinity chromatography and SEC); mouse and human subcomplexes co-expressed in insect cells; Elp123 by Twin-Strep-tag on Elp3 (StrepTrap), heparin, Superose 6; Elp456 by protein A on Elp6 (IgG Sepharose, TEV elution), Superose 6.

For assay [2], the target named is T1, Mus musculus Elp3 (Mus musculus). Put plainly: cryo-EM structure; MmElongator reconstituted from purified MmElp123 and MmElp456 and re-purified by gel filtration, 5.9 Å; both purified. Background: SEC sorts molecules by how far they enter the pores of the column.
Assay [3] concerns the target T2, Mus musculus Elp1 (Mus musculus) (UniProt Q7TT37).
T2 sequence: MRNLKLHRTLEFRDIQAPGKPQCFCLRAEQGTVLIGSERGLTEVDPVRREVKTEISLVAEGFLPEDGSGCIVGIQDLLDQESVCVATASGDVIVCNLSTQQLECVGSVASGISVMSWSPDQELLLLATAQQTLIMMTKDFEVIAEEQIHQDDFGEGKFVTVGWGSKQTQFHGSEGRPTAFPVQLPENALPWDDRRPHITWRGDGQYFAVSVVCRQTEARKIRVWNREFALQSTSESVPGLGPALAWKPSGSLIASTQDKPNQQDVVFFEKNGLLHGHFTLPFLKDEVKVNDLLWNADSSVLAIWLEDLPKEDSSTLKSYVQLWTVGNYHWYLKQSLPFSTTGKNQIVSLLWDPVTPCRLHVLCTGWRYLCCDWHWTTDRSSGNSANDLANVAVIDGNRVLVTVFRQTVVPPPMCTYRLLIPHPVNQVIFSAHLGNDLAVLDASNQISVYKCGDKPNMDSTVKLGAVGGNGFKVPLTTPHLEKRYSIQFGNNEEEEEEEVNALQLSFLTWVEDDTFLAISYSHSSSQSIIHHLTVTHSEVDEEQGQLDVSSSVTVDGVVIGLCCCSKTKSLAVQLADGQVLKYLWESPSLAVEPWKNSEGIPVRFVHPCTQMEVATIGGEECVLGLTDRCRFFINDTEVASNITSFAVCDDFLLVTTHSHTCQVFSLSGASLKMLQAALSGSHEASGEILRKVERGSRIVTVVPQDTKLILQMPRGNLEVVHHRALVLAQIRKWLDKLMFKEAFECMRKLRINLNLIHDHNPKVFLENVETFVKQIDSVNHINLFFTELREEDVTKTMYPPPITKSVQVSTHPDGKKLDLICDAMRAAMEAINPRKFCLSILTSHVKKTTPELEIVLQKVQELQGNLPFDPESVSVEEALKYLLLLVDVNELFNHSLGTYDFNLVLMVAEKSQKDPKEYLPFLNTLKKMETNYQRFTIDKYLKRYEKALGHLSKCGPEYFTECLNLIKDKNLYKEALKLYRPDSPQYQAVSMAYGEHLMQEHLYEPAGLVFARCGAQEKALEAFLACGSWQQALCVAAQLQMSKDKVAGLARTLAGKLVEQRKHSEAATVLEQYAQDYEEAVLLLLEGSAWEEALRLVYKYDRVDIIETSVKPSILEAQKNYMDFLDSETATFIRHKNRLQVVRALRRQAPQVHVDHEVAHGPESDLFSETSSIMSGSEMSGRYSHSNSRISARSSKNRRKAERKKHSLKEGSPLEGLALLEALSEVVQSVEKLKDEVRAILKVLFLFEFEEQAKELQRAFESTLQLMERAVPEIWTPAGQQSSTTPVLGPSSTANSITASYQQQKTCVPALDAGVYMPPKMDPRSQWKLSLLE
Described as above.

The target of assay [4] is T3, Mus musculus Elp6 (Mus musculus) (UniProt Q8BK75).
T3 sequence: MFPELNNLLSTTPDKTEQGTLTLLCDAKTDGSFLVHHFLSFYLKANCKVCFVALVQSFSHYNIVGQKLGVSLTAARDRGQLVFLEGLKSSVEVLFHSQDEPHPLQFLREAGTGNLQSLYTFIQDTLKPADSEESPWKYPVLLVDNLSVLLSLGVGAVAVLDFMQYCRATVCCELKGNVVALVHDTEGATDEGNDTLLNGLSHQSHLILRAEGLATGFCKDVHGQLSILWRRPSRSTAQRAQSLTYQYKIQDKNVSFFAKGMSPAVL
The assay can be described thus: co-purification (affinity chromatography and SEC); mouse and human subcomplexes co-expressed in insect cells; Elp123 by Twin-Strep-tag on Elp3 (StrepTrap), heparin, Superose 6; Elp456 by protein A on Elp6 (IgG Sepharose, TEV elution), Superose 6.

Assay [5] addresses T4, Homo sapiens Elp6 (Homo sapiens) (UniProt Q0PNE2).
T4 sequence: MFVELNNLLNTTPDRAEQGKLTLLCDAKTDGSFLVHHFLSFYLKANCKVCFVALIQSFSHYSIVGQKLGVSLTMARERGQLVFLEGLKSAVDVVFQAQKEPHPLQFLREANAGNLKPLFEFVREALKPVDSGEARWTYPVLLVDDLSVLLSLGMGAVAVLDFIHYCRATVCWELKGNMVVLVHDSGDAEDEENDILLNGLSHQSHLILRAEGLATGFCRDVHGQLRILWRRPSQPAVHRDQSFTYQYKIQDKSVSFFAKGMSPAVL
The description is as above.

No constants are given. Whether binding was seen depends on the method and setting. Some results given as binding are weak or reduced against the parent protein; the word gives no strength.

B1: Mus musculus Elp1 (protein, UniProt Q7TT37 1-1333)
chain: MRNLKLHRTLEFRDIQAPGKPQCFCLRAEQGTVLIGSERGLTEVDPVRREVKTEISLVAEGFLPEDGSGCIVGIQDLLDQESVCVATASGDVIVCNLSTQQLECVGSVASGISVMSWSPDQELLLLATAQQTLIMMTKDFEVIAEEQIHQDDFGEGKFVTVGWGSKQTQFHGSEGRPTAFPVQLPENALPWDDRRPHITWRGDGQYFAVSVVCRQTEARKIRVWNREFALQSTSESVPGLGPALAWKPSGSLIASTQDKPNQQDVVFFEKNGLLHGHFTLPFLKDEVKVNDLLWNADSSVLAIWLEDLPKEDSSTLKSYVQLWTVGNYHWYLKQSLPFSTTGKNQIVSLLWDPVTPCRLHVLCTGWRYLCCDWHWTTDRSSGNSANDLANVAVIDGNRVLVTVFRQTVVPPPMCTYRLLIPHPVNQVIFSAHLGNDLAVLDASNQISVYKCGDKPNMDSTVKLGAVGGNGFKVPLTTPHLEKRYSIQFGNNEEEEEEEVNALQLSFLTWVEDDTFLAISYSHSSSQSIIHHLTVTHSEVDEEQGQLDVSSSVTVDGVVIGLCCCSKTKSLAVQLADGQVLKYLWESPSLAVEPWKNSEGIPVRFVHPCTQMEVATIGGEECVLGLTDRCRFFINDTEVASNITSFAVCDDFLLVTTHSHTCQVFSLSGASLKMLQAALSGSHEASGEILRKVERGSRIVTVVPQDTKLILQMPRGNLEVVHHRALVLAQIRKWLDKLMFKEAFECMRKLRINLNLIHDHNPKVFLENVETFVKQIDSVNHINLFFTELREEDVTKTMYPPPITKSVQVSTHPDGKKLDLICDAMRAAMEAINPRKFCLSILTSHVKKTTPELEIVLQKVQELQGNLPFDPESVSVEEALKYLLLLVDVNELFNHSLGTYDFNLVLMVAEKSQKDPKEYLPFLNTLKKMETNYQRFTIDKYLKRYEKALGHLSKCGPEYFTECLNLIKDKNLYKEALKLYRPDSPQYQAVSMAYGEHLMQEHLYEPAGLVFARCGAQEKALEAFLACGSWQQALCVAAQLQMSKDKVAGLARTLAGKLVEQRKHSEAATVLEQYAQDYEEAVLLLLEGSAWEEALRLVYKYDRVDIIETSVKPSILEAQKNYMDFLDSETATFIRHKNRLQVVRALRRQAPQVHVDHEVAHGPESDLFSETSSIMSGSEMSGRYSHSNSRISARSSKNRRKAERKKHSLKEGSPLEGLALLEALSEVVQSVEKLKDEVRAILKVLFLFEFEEQAKELQRAFESTLQLMERAVPEIWTPAGQQSSTTPVLGPSSTANSITASYQQQKTCVPALDAGVYMPPKMDPRSQWKLSLLE
Consider B1, for which the binding result in assay [1] is given as “binds”.

B2: Mus musculus Elp4 (protein, UniProt Q9ER73 1-422)
chain: MAAADTCGAGTLSSRSVASEAGQGGTSSFQRKGKASGGPGGGPRLLSIAGTRPSVRNGQLLVSTGLPALDQLLGGGLAVGTLLLIEEDKYNIYSPLLFKYFMAEGIINGHTLLVASAKENPAKILQELPAPLLDDNSKKELEDVHSAKTPEPNVNMKIAWRYQLQPKMEVGPVSSSRFGHYYDLSKRIPWELLQSSKWHGFFLPEHISPDLKGESCFLSCGYMRLLEFIQKSVYAEGFDGANPQKKQKNILRIGIQNLGSPLWGDDICCKENCDNNHRLTKFLYILRGLLRSSLSACIITMPAHLVQNKSITTRVRNLSDTVVGLESFIGSERETNPLYKDYHGLIHIRKIPRLNNLTCDESDVKDLAFKLKRKLFTIERLHLPPDLSDTVGRSSKQDLAASTARLGAGCSSMAEGKKHLDF
As for B2, the binding result in assay [2], in assay [3] and in assay [4] was “binds” throughout.

B3: Mus musculus Elp5 (protein, UniProt Q99L85 1-300)
chain: MLDSLLAIGGLVLLRDSVEWEGRSLLKALIKKSALRGEQVHVLGCEVSEEEFREGFDSDVNSRLVYHDLFRDPLNWSKPGEAVPEGPLKALRSMCKRTDHGSVTIALDSLSWLLCHIPCVTLCQALHALSQQNGDPGDNSLVEQVRVLGLLHEELHGPGSMGALNTLAHTEVTLSGKVDQTSASILCRRPQQRATYQTWWFSVLPDFSLTLHEGLPLRSELHPDHHTTQVDPTAHLTFNLHLSKKEREARDSLTLPFQFSSEKQKALLHPVPSRTTGHIFYEPDAFDDVDPEDPDDDLDI
Take B3: the binding result in assay [3] and in assay [4] was “binds” throughout.

B4: Homo sapiens Elp4 (protein, UniProt Q96EB1 1-424)
chain: MAAVATCGSVAASTGSAVATASKSNVTSFQRRGPRASVTNDSGPRLVSIAGTRPSVRNGQLLVSTGLPALDQLLGGGLAVGTVLLIEEDKYNIYSPLLFKYFLAEGIVNGHTLLVASAKEDPANILQELPAPLLDDKCKKEFDEDVYNHKTPESNIKMKIAWRYQLLPKMEIGPVSSSRFGHYYDASKRMPQELIEASNWHGFFLPEKISSTLKVEPCSLTPGYTKLLQFIQNIIYEEGFDGSNPQKKQRNILRIGIQNLGSPLWGDDICCAENGGNSHSLTKFLYVLRGLLRTSLSACIITMPTHLIQNKAIIARVTTLSDVVVGLESFIGSERETNPLYKDYHGLIHIRQIPRLNNLICDESDVKDLAFKLKRKLFTIERLHLPPDLSDTVSRSSKMDLAESAKRLGPGCGMMAGGKKHLDF
As for B4, the binding entry in assay [5] is reported as “binds”.

B5: Mus musculus Elp6 (protein, UniProt Q8BK75 1-266)
chain: MFPELNNLLSTTPDKTEQGTLTLLCDAKTDGSFLVHHFLSFYLKANCKVCFVALVQSFSHYNIVGQKLGVSLTAARDRGQLVFLEGLKSSVEVLFHSQDEPHPLQFLREAGTGNLQSLYTFIQDTLKPADSEESPWKYPVLLVDNLSVLLSLGVGAVAVLDFMQYCRATVCCELKGNVVALVHDTEGATDEGNDTLLNGLSHQSHLILRAEGLATGFCKDVHGQLSILWRRPSRSTAQRAQSLTYQYKIQDKNVSFFAKGMSPAVL
For B5, the binding entry in assay [2] is “binds”.

B6: Homo sapiens Elp5 (protein, UniProt Q8TE02 1-300)
chain: MLDSLLALGGLVLLRDSVEWEGRSLLKALVKKSALCGEQVHILGCEVSEEEFREGFDSDINNRLVYHDFFRDPLNWSKTEEAFPGGPLGALRAMCKRTDPVPVTIALDSLSWLLLRLPCTTLCQVLHAVSHQDSCPGDSSSVGKVSVLGLLHEELHGPGPVGALSSLAQTEVTLGGTMGQASAHILCRRPRQRPTDQTQWFSILPDFSLDLQEGPSVESQPYSDPHIPPVDPTTHLTFNLHLSKKEREARDSLILPFQFSSEKQQALLRPRPGQATSHIFYEPDAYDDLDQEDPDDDLDI
For the molecule B6, in assay [5], the binding result is given as “binds”.
